Measured values reported in publication PMC6508832.

By UniProt entry, the sequences of proteins in these tests, tags left out. Where a name states a change or a piece, a line headed by the entry shows the natural chain unless it says otherwise. Residues count along the entry.
UniProt Q9STW6: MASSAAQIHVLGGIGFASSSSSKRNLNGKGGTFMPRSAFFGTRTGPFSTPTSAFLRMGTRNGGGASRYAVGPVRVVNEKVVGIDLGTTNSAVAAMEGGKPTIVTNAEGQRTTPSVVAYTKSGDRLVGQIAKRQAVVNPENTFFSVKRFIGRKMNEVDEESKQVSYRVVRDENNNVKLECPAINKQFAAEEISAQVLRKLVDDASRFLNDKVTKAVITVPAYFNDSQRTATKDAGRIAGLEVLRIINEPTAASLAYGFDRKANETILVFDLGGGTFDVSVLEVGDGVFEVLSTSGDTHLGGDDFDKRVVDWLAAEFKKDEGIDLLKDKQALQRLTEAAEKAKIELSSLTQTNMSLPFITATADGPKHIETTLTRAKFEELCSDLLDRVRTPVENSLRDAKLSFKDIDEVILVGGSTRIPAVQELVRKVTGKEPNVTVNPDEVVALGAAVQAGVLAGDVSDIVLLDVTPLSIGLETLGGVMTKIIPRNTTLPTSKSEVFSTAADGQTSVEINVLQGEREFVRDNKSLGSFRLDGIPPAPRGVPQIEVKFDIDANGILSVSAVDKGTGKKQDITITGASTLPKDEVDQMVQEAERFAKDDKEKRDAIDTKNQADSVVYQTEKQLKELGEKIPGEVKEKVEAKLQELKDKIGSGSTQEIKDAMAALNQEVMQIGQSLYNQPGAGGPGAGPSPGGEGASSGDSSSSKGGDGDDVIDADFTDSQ
UniProt Q9FI56, residues 39-929: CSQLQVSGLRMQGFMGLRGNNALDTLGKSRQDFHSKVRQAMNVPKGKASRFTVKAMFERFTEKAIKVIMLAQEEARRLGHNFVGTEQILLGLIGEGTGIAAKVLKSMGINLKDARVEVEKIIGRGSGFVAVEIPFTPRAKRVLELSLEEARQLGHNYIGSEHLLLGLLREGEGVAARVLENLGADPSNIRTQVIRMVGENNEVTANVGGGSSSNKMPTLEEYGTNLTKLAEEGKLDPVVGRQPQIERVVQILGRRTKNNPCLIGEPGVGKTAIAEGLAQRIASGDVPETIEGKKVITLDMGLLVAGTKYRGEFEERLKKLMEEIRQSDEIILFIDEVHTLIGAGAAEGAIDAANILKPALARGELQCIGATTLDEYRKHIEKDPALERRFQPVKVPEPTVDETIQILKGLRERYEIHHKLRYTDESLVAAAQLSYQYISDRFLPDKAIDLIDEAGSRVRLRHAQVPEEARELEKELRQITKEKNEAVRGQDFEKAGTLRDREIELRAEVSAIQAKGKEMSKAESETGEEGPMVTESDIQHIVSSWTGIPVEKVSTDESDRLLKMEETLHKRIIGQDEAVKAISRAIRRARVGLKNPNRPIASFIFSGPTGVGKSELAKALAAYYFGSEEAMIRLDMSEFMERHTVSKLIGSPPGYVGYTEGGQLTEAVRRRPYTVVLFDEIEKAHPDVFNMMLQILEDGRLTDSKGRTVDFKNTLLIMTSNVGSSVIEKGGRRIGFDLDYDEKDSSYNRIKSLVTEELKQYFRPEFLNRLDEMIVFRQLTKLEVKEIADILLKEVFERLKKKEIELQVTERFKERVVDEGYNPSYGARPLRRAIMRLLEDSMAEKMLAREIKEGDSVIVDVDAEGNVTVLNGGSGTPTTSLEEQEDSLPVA

T1: CLPP5S193A‐STREPII (Arabidopsis) (UniProt Q9S834)
T1 sequence: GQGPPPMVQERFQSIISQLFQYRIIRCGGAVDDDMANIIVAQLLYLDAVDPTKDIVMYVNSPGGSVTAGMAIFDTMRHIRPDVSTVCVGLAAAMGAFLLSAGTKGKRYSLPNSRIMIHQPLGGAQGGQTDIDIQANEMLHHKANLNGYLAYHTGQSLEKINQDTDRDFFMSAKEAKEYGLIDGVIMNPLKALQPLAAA

T2: CLPP5‐STREPII (Arabidopsis) (UniProt Q9S834)
T2 sequence: T1 sequence with A93S

T3: CLPP3S164A‐STREPII (Arabidopsis) (UniProt Q9SXJ6)
T3 sequence: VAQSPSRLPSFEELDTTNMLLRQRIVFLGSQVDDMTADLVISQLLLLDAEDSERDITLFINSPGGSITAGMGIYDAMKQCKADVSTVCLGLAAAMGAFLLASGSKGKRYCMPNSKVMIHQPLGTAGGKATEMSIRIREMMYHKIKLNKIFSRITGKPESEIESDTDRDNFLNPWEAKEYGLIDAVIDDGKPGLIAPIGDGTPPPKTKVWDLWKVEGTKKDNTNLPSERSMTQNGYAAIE

T4: CLPP3‐STREPII (Arabidopsis) (UniProt Q9SXJ6)
T4 sequence: T3 sequence with A94S

B1: CLPT1 (protein, UniProt Q93WL3 65-238)
chain: STVLNVPIAQPENGSSDKIPKWSARAIKSLAMGELEARKLKYPSTGTEAILMGILVEGTSTVAKFLRGNGVTLFKVRDETLSLLGKSDMYFFSPEHPPLTEPAQKAIAWAIDEKNKSDVDGELTTAYLLLGVWSQKDSAGRQILEKLGFNEDKAKEVEKSMNEDVDLSFKKQGQ
B2: FRUCTOSE‐BISPHOSPHATASE (enzyme, UniProt P25851 60-417)
chain: AVAADAAETKTAARKKSGYELQTLTGWLLRQEMKGEIDAELTIVMSSISLACKQIASLVQRAGISNLTGVQGAVNIQGEDQKKLDVISNEVFSNCLRSSGRTGIIASEEEDVPVAVEESYSGNYVVVFDPLDGSSNIDAAVSTGSIFGIYSPNDECIVDDSDDISALGSEEQRCIVNVCQPGNNLLAAGYCMYSSSVIFVLTLGKGVFSFTLDPMYGEFVLTQENIEIPKAGRIYSFNEGNYQMWDDKLKKYIDDLKDPGPTGKPYSARYIGSLVGDFHRTLLYGGIYGYPRDAKSKNGKLRLLYECAPMSFIVEQAGGKGSDGHSRVLDIQPTEIHQRVPLYIGSTEEVEKLEKYLA
B3: RUBISCO ACTIVASE (protein, UniProt P10896 59-474)
chain: AVKEDKQTDGDRWRGLAYDTSDDQQDITRGKGMVDSVFQAPMGTGTHHAVLSSYEYVSQGLRQYNLDNMMDGFYIAPAFMDKLVVHITKNFLTLPNIKVPLILGIWGGKGQGKSFQCELVMAKMGINPIMMSAGELESGNAGEPAKLIRQRYREAADLIKKGKMCCLFINDLDAGAGRMGGTTQYTVNNQMVNATLMNIADNPTNVQLPGMYNKEENARVPIICTGNDFSTLYAPLIRDGRMEKFYWAPTREDRIGVCKGIFRTDKIKDEDIVTLVDQFPGQSIDFFGALRARVYDDEVRKFVESLGVEKIGKRLVNSREGPPVFEQPEMTYEKLMEYGNMLVMEQENVKRVQLAETYLSQAALGDANADAIGRGTFYGKGAQQVNLPVPEGCTDPVAENFDPTARSDDGTCVYNF
B4: CLPS1 (protein, UniProt Q9SX29 45-159)
chain: AALGKGGGVLDKPIIEKTTPGRESEFDLRKSKKIAPPYRVILHNDNFNKREYVVQVLMKVIPGMTVDNAVNIMQEAHINGLAVVIVCAQADAEQHCMQLRGNGLLSSVEPDGGGC

Key:
[1] = biological target: T1, CLPP5S193A‐STREPII (Arabidopsis); experiment: affinity purification with mass spectrometry; StrepTactin column (superflow high capacity resin); total soluble leaf proteins extracted under non‐denaturing conditions with avidin (0.2 mg per g leaf tissue) from clpp5‐1 with CLPP5‐STREPII or heterozygous clpp5‐1 with CLPP5S193A‐STREPII; elution with 5 mM biotin; SDS‐PAGE, trypsin, LTQ‐Orbitrap MS/MS; four purifications for each line
[2] = biological target: T2, CLPP5‐STREPII (Arabidopsis); experiment: as above
[3] = biological target: T3, CLPP3S164A‐STREPII (Arabidopsis); experiment: affinity purification with mass spectrometry; StrepTactin column (superflow high capacity resin); at least 2 mg stromal proteins or 24 mg total leaf proteins extracted under non‐denaturing conditions from clpp3‐1 lines with CLPP3‐STREPII or CLPP3S164A‐STREPII; no avidin; elution with 5 mM biotin; SDS‐PAGE, trypsin, LTQ‐Orbitrap MS/MS; four purifications for each line; wt extract as negative control
[4] = biological target: T4, CLPP3‐STREPII (Arabidopsis); experiment: as above

Row | Molecule | binding [1] | binding [2] | binding [3] | binding [4]
1 | HSP70‐1 (from UniProt Q9STW6) | binds | binds |  | 
2 | CLPC1 (from UniProt Q9FI56 39-929) | binds | binds | binds | binds
3 | B1 | binds | binds | binds | binds
4 | B2 | binds |  |  | 
5 | B3 | binds | binds |  | 
6 | B4 | no binding | no binding | no binding | no binding

Residue numbers refer to the chain shown, from its start. Results are given in words; binding and its absence hold for the method and conditions named. In cells and extracts the contact can be indirect. Here binding means that the protein was enriched with, or labelled near, the bait; the list need not be complete. A no says only that the protein was not detected with the bait.
